Data: paper PMC6628435, “Chemical Synthesis, Proper Folding, Nav Channel Selectivity Profile and Analgesic Properties of the Spider Peptide Phlotoxin 1” (Toxins, 2019)

Conditions: mouse, in vivo

In the case of `CN1CC[C@]23c4c5ccc(O)c4O[C@H]2[C@@H](O)C=C[C@H]3[C@H]1C5` [morphine, reference compound], the “neurotoxicity after intrathecal injection” value is reported as “no neurotoxicity was observed”.
